Test results reported in the supplement of paper PMC10849652.
This is one part of the list.

Sequences of proteins named here, by UniProt entry; tags and fusion partners are left off. A change or cut given only in a name is not applied to a line headed by its entry.
UniProt Q9NRY4: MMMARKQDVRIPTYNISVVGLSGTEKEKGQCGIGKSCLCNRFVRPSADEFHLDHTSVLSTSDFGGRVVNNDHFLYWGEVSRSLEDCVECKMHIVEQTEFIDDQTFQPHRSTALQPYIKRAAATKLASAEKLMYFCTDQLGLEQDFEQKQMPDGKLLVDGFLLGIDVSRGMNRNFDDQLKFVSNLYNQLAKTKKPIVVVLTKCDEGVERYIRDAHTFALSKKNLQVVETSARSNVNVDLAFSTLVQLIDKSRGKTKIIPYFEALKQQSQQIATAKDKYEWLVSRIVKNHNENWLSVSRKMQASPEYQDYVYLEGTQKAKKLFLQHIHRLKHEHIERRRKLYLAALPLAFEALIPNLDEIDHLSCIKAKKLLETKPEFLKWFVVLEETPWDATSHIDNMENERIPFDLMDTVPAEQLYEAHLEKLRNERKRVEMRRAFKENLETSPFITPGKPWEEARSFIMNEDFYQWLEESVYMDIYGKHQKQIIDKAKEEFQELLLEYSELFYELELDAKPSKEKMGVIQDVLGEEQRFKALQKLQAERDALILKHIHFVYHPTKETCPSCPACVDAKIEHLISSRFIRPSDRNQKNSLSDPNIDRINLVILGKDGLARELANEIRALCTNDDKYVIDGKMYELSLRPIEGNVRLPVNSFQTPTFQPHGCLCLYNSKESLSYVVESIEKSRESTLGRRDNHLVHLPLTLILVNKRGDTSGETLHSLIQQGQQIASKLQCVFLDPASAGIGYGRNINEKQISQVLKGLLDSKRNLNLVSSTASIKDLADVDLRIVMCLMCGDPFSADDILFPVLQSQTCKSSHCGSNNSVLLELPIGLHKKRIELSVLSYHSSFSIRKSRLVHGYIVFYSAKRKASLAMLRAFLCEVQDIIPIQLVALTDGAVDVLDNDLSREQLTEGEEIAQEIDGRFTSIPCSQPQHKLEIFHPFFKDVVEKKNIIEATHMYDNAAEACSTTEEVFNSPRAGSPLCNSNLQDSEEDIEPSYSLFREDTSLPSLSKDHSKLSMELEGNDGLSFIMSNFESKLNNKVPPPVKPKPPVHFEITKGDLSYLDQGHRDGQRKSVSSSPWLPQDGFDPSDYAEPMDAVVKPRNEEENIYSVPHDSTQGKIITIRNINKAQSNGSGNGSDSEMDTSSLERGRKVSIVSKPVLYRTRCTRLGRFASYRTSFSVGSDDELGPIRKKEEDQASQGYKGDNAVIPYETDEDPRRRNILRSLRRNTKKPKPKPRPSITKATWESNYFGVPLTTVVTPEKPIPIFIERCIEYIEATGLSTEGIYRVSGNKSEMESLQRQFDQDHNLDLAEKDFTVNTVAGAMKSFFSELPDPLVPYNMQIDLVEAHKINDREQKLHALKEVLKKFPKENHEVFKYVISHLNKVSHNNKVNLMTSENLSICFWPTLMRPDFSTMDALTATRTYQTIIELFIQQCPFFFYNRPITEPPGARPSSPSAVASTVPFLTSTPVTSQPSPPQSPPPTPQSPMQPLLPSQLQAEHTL
UniProt Q9UJX5, whole entry, looked up: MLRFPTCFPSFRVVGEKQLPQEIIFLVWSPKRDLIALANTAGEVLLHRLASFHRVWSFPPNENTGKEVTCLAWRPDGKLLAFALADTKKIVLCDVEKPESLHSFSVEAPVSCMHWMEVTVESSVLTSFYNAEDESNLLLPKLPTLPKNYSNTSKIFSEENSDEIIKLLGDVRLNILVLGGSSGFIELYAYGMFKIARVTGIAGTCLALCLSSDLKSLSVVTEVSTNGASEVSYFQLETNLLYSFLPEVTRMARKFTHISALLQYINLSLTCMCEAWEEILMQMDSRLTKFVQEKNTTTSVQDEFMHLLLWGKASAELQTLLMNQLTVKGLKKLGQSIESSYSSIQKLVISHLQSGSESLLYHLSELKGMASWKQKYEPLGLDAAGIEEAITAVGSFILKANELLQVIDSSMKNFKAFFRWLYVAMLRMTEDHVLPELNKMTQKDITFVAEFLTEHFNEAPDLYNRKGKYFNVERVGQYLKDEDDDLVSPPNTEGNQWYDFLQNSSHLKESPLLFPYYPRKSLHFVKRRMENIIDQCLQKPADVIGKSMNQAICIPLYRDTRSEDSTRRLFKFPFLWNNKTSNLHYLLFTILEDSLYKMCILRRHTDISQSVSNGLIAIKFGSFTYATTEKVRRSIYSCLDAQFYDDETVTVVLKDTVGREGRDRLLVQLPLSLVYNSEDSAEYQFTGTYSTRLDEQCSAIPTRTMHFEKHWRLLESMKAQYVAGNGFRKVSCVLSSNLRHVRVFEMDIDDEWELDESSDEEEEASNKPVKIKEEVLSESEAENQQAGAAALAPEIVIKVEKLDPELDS
UniProt Q96GX9: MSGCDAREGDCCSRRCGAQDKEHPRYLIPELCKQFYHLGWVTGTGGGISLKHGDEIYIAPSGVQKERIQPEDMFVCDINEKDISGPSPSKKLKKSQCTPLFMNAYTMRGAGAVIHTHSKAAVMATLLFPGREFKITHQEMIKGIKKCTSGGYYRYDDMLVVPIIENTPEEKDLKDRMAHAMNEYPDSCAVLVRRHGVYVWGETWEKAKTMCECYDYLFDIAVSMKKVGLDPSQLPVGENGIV
UniProt P48444: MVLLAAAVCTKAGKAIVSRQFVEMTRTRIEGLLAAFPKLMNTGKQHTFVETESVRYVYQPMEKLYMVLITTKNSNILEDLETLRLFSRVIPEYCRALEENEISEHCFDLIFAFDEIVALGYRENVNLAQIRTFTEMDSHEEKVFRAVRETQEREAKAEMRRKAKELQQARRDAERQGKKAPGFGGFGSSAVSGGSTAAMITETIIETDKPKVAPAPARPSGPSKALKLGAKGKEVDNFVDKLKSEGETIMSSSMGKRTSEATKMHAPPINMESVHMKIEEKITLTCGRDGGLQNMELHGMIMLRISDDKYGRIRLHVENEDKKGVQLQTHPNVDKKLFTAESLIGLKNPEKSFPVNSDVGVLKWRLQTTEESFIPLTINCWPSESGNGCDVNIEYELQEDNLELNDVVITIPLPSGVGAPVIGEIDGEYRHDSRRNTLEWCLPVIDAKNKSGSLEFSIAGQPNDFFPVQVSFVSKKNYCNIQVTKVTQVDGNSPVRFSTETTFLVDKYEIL
UniProt Q9P2R3: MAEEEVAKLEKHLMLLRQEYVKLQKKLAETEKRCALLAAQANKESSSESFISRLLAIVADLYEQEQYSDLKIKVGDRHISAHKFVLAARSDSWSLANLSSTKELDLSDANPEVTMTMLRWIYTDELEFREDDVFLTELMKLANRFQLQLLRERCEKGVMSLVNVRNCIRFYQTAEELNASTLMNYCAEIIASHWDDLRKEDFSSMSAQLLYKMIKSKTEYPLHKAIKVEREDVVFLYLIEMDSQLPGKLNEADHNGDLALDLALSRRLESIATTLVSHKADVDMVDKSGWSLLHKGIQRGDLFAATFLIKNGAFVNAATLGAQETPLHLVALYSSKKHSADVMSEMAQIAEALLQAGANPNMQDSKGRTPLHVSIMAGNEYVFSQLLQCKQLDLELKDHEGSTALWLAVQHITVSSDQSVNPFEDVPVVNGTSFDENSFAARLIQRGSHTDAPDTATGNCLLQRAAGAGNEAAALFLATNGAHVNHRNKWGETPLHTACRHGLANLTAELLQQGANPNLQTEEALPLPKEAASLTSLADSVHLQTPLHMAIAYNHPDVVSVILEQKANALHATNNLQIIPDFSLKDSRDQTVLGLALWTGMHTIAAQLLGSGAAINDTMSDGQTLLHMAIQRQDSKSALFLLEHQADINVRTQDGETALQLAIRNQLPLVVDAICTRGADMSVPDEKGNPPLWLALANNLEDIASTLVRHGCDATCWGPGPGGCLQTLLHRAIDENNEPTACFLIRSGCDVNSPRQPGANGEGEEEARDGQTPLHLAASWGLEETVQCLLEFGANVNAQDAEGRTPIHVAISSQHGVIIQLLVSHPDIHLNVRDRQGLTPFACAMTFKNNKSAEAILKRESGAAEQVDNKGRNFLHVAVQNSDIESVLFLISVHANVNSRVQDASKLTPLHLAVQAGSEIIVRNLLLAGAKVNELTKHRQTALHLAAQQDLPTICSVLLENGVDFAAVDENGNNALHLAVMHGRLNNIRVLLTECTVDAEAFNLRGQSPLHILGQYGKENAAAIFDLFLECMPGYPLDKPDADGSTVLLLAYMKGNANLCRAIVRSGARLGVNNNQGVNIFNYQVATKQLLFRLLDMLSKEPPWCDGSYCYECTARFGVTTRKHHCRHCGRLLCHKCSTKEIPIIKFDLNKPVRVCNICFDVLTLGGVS
UniProt Q9NRW3: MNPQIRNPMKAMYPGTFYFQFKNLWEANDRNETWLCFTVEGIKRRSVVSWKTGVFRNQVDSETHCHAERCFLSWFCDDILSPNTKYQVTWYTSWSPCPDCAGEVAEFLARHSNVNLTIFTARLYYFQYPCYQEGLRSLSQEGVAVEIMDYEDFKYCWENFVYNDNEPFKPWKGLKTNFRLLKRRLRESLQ
UniProt Q96BI3, whole entry, looked up: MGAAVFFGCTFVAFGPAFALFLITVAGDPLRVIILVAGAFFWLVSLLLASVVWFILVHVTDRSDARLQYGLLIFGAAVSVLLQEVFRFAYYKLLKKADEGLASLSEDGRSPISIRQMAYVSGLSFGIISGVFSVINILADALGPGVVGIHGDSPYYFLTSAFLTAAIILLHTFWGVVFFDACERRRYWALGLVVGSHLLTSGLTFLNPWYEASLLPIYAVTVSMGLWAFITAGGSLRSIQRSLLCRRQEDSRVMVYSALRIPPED
UniProt Q68EM7: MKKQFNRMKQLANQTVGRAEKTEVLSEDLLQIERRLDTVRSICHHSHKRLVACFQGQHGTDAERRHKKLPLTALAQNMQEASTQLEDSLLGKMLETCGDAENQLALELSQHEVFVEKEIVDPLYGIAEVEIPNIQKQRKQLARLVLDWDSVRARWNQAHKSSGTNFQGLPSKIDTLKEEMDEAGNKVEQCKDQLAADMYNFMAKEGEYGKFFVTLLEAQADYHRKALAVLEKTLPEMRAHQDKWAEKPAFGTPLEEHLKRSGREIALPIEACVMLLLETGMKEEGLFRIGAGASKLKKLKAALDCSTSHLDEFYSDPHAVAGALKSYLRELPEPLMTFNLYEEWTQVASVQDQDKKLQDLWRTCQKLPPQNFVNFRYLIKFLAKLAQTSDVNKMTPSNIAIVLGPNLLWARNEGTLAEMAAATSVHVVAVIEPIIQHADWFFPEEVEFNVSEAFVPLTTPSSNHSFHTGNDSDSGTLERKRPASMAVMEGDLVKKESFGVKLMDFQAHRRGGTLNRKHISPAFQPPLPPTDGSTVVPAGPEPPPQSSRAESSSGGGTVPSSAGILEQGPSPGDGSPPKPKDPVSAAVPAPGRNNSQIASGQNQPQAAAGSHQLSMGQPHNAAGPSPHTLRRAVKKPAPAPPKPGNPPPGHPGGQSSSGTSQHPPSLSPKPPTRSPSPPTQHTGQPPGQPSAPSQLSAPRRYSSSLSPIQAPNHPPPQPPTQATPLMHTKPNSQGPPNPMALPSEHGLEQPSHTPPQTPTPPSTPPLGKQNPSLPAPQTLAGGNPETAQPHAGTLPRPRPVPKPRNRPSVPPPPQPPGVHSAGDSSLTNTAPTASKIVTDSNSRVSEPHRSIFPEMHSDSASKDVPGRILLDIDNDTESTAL
UniProt P61966: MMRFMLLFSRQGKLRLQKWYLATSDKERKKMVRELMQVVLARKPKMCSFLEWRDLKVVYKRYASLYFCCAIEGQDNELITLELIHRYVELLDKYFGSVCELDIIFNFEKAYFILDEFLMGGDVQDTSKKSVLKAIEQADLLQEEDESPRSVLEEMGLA
UniProt Q14155: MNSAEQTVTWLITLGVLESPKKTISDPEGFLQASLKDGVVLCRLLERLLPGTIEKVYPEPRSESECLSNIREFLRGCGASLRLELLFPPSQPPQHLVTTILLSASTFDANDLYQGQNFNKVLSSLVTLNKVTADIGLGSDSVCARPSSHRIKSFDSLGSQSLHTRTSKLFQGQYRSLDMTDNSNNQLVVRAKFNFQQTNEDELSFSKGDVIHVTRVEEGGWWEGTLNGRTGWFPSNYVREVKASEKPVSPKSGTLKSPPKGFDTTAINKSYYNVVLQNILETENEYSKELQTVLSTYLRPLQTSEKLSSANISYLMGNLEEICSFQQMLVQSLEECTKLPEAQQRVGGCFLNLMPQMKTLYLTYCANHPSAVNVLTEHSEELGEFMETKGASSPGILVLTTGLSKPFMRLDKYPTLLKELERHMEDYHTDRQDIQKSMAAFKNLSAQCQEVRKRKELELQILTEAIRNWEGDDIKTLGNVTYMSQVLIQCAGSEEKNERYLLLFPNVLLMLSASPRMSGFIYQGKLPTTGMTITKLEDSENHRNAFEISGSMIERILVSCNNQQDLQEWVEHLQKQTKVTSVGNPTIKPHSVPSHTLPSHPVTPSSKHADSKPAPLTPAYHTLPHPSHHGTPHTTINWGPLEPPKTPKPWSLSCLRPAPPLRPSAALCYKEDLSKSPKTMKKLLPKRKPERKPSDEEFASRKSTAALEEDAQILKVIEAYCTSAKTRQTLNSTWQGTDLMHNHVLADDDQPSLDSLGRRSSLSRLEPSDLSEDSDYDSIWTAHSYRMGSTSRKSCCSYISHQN

Tests used:
Assay in all cases: log2 fold change, soluble protein after heating vs DMSO (PISA); higher = thermal stabilisation; K562 cells, 10 uM, 30 min; active = over 0.2 and 3.5 SD of the protein, either way, in both replicates (recomputed)
[1] = compound: C#Cc1cccc(Nc2ncnc3cc(OCCOC)c(OCCOC)cc23)c1 [erlotinib]
Procedure, shortened: (§1)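 Values are thermal stability changes relative to control samples and are taken from duplicates. They are stated as log2 fold changes. Before quantification by TMTpro 16plex LC-MS/MS with equalised channel sums, K562 cells at 2×10^6 cells/mL were treated with 10 μM compound for 30 min, heated in aliquots for 3 min across 48°C-58°C, pooled, extracted in PBS with 0.5% NP-40 at 4°C, and centrifuged at 21,000xg for 90 min to give the soluble supernatant.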

[2] = compound: C/C(=N\NC(=O)C1=CC(=CC=C1)S(=O)(=O)N2CCOCC2)/C3=C(C=CC(=C3)Cl)O
Procedure, shortened: as §1

[3] = compound: C1=CC(=C(C=C1Cl)C2=NC3=NC=CN=C3C(=N2)NC4=CC=NC=C4)F
Procedure, shortened: as §1

[4] = compound: C1=CC(=CC=C1C2=NC3=C(N2)C=C(C=C3)C(=O)N)OC4=CC=C(C=C4)Cl
Procedure, shortened: as §1

[5] = compound: C1=CC2=C(C=CC(=C2)/C=C\3/C(=O)NC(=NCC4=CC=CS4)S3)N=C1
Procedure, shortened: as §1

[6] = compound: C1=CC2=NC=CN=C2C=C1/C=C/3\C(=O)NC(=O)S3
Procedure, shortened: as §1

[7] = compound: C1=CC=C(C=C1)C2=NC(=C(N2)C3=CC=NC=C3)C4=CC(=C(C=C4)Cl)O
Procedure, shortened: as §1

[8] = compound: C1=CC=C2C(=C1)C3=NNC4=CC=CC(=C43)C2=O
Procedure, shortened: as §1

[9] = compound: C1CCN(C1)C(=O)NC2=CC=CC(=C2)NC3=NC=C(C(=N3)NCCC4=CN=CN4)Br
Procedure, shortened: as §1

[10] = compound: C1CN(CCC1(CC2=CC=C(C=C2)Cl)N)C3=NC=NC4=C3C=CN4
Procedure, shortened: as §1

Measured: log2 fold change

APOB (UniProt P04114)
inactive: [1] 0.062 | [2] 0.008 | [3] 0.042 | [4] -0.024 | [5] -0.018 | [6] 0.05 | [7] 0.046 | [8] -0.011 | [9] 0.018 | [10] -0.174

AREG (UniProt P15514)
inactive: [1] -0.296 | [2] -0.022 | [4] 0.001 | [5] -0.117 | [8] -0.083

ARHGAP35 (UniProt Q9NRY4)
inactive: [1] 0.053 | [2] 0.018 | [3] -0.175 | [4] -0.002 | [5] 0.157 | [7] -0.044 | [8] -0.061 | [9] -0.044 | [10] 0.07

ARFIP1 (UniProt P53367)
inactive: [1] 0.217 | [2] -0.121 | [3] 0.087 | [4] 0.094 | [5] 0.115 | [6] 0.62 | [7] -0.126 | [8] -0.013 | [9] 0 | [10] 0.044

APOL2 (UniProt J3KQL8)
inactive: [1] 0.02 | [2] 0.157 | [3] -0.058 | [4] 0.028 | [5] 0.072 | [6] -0.087 | [8] 0.119 | [9] -0.041 | [10] 0.097

Random excerpt: two records from the list
APOL2 (UniProt J3KQL8)
inactive: [1] 0.02 | [2] 0.157 | [3] -0.058 | [4] 0.028 | [5] 0.072 | [6] -0.087 | [8] 0.119 | [9] -0.041 | [10] 0.097

ARHGAP35 (UniProt Q9NRY4)
inactive: [1] 0.053 | [2] 0.018 | [3] -0.175 | [4] -0.002 | [5] 0.157 | [7] -0.044 | [8] -0.061 | [9] -0.044 | [10] 0.07

(list continues)

ANKH (UniProt Q9HCJ1)
inactive: [1] 0.177 | [2] -0.306 | [4] -0.15 | [5] 0.483 | [7] 0.128 | [8] -0.159

ARF5 (UniProt P84085)
inactive: [1] 0.024 | [2] 0.018 | [3] -0.011 | [4] -0.016 | [5] -0.019 | [6] 0.042 | [7] -0.028 | [8] 0.016 | [9] 0.025 | [10] 0.042

APRT (UniProt P07741)
inactive: [1] 0.021 | [2] -0.005 | [3] 0.072 | [4] -0.005 | [5] 0.082 | [6] 0.008 | [7] -0.032 | [8] -0.013 | [9] 0.012 | [10] 0.012

ANAPC4 isoform 3 (UniProt Q9UJX5)
inactive: [1] 0.008 | [2] 0.046 | [3] -0.013 | [4] 0.046 | [5] -0.031 | [6] 0.006 | [7] 0.017 | [8] -0.035 | [9] -0.034 | [10] 0.016

APIP (UniProt Q96GX9)
inactive: [1] -0.097 | [2] 0.006 | [3] 0.025 | [4] -0.004 | [5] 0.035 | [6] 0.085 | [7] 0.003 | [8] 0.011 | [9] 0.006 | [10] 0.046

APTX (UniProt Q7Z2E3)
inactive: [1] 0.065 | [2] -0.025 | [3] -0.078 | [4] 0.072 | [5] 0.119 | [8] -0.079

ARCN1 (UniProt P48444)
inactive: [1] -0.03 | [2] 0.011 | [3] 0.094 | [4] 0.005 | [5] -0.004 | [6] 0.021 | [7] 0.01 | [8] -0.022 | [9] -0.04 | [10] 0.028

ARHGAP4 isoform 2 (UniProt P98171)
inactive: [1] 0.042 | [2] -0.338 | [4] 0.033 | [5] 0.121 | [6] -0.209 | [7] -0.016 | [8] -0.061 | [9] -0.117 | [10] 0.015

AP4B1 (UniProt Q9Y6B7)
inactive: [1] -0.055 | [2] 0.289 | [4] -0.054 | [5] -0.081 | [6] 0.04 | [8] -0.01 | [9] -0.097 | [10] 0.164

ANKFY1 isoform 4 (UniProt Q9P2R3)
inactive: [1] 0.055 | [2] 0.077 | [3] -0.216 | [4] -0.058 | [5] -0.081 | [6] 0.005 | [7] -0.044 | [8] -0.062 | [9] -0.016 | [10] -0.172

ANKZF1 (UniProt Q9H8Y5)
inactive: [1] 0.142 | [2] 0.032 | [3] -0.141 | [4] 0 | [5] 0.015 | [6] -0.108 | [7] -0.035 | [8] -0.039 | [9] 0.057 | [10] -0.022

ANK2 (UniProt Q01484)
inactive: [1] -0.089 | [2] -0.173 | [4] -0.028 | [5] 0.325 | [6] -0.059 | [7] 0.011 | [8] -0.031 | [9] -0.126 | [10] -0.131

ARHGAP12 (UniProt Q8IWW6)
inactive: [1] 0.088 | [2] 0.123 | [3] 0.096 | [4] -0.016 | [5] 0.116 | [6] -0.061 | [7] -0.032 | [8] -0.024 | [9] -0.104 | [10] 0.204

ANAPC2 (UniProt Q9UJX6)
inactive: [1] -0.028 | [2] 0.064 | [3] -0.002 | [4] 0.018 | [5] 0.002 | [6] 0.144 | [7] -0.029 | [8] 0.022 | [9] -0.033 | [10] -0.022

ARHGAP1 (UniProt Q07960)
inactive: [1] -0.039 | [2] 0.014 | [3] 0.025 | [4] 0.021 | [5] 0.038 | [6] 0.021 | [7] 0.021 | [8] -0.011 | [9] 0.002 | [10] 0.019

APOH (UniProt P02749)
inactive: [1] -0.214 | [2] -0.028 | [4] 0.051 | [5] -0.026 | [6] 0.069 | [7] -0.1 | [8] -0.092 | [9] 0.188 | [10] 0.09

APOBEC3C (UniProt Q9NRW3)
inactive: [1] -0.097 | [2] -0.155 | [3] -0.239 | [4] 0.134 | [5] -0.066 | [6] 0.019 | [7] -0.068 | [8] 0.026 | [9] 0.11 | [10] -0.121

APH1A (UniProt Q96BI3)
inactive: [1] 0 | [2] -0.046 | [4] 0.052 | [5] 0.073 | [6] 0.048 | [8] -0.09 | [9] -0.188 | [10] 0.071

ARHGAP17 (UniProt Q68EM7)
inactive: [1] 0.034 | [2] -0.07 | [3] -0.076 | [4] -0.056 | [5] 0.075 | [6] 0.064 | [7] -0.011 | [8] -0.019 | [9] 0.027 | [10] -0.157

APLP2 (UniProt Q06481)
inactive: [1] 0.003 | [2] 0.009 | [3] -0.023 | [4] -0.034 | [5] 0.023 | [6] 0.004 | [7] 0.044 | [8] -0.03 | [9] -0.047 | [10] -0.002

AP1S1 (UniProt P61966)
inactive: [1] 0.009 | [2] 0.07 | [3] 0 | [4] -0.013 | [5] 0.006 | [6] 0.054 | [7] -0.022 | [8] -0.017 | [9] 0.086 | [10] -0.088

ARHGEF7 isoform 5 (UniProt Q14155)
inactive: [1] 0.17 | [2] 0.054 | [3] 0.015 | [4] -0.017 | [5] 0.047 | [6] -0.019 | [7] 0.02 | [8] -0.055 | [9] -0.057 | [10] 0.023

ANPEP (UniProt P15144)
inactive: [1] 0.045 | [2] -0.068 | [4] 0.089 | [5] 0.11 | [7] 0.101 | [8] -0.042 | [9] -0.01 | [10] -0.064

ANKRD52 (UniProt Q8NB46)
inactive: [1] 0.01 | [2] 0.142 | [3] -0.121 | [4] 0.021 | [5] -0.016 | [7] -0.001 | [8] 0.055 | [9] -0.082 | [10] 0.125

ANKRD17 (UniProt O75179)
inactive: [1] 0.143 | [2] -0.188 | [3] -0.114 | [4] -0.078 | [5] 0.139 | [6] -0.083 | [7] -0.008 | [8] 0.019 | [9] -0.093 | [10] -0.002

AREL1 (UniProt O15033)
inactive: [2] 0.072 | [5] 0.019 | [8] 0.031

APBA2 (UniProt Q99767)
inactive: [3] 0.04
